Reference: paper doi:10.1101/2024.12.10.627846
Results are given in words; binding and its absence hold for the method and conditions named. Binding seen in cells or lysates may run through a third protein.

Sequences of proteins named here, by UniProt entry; tags and fusion partners are left off.
UniProt Q3T906: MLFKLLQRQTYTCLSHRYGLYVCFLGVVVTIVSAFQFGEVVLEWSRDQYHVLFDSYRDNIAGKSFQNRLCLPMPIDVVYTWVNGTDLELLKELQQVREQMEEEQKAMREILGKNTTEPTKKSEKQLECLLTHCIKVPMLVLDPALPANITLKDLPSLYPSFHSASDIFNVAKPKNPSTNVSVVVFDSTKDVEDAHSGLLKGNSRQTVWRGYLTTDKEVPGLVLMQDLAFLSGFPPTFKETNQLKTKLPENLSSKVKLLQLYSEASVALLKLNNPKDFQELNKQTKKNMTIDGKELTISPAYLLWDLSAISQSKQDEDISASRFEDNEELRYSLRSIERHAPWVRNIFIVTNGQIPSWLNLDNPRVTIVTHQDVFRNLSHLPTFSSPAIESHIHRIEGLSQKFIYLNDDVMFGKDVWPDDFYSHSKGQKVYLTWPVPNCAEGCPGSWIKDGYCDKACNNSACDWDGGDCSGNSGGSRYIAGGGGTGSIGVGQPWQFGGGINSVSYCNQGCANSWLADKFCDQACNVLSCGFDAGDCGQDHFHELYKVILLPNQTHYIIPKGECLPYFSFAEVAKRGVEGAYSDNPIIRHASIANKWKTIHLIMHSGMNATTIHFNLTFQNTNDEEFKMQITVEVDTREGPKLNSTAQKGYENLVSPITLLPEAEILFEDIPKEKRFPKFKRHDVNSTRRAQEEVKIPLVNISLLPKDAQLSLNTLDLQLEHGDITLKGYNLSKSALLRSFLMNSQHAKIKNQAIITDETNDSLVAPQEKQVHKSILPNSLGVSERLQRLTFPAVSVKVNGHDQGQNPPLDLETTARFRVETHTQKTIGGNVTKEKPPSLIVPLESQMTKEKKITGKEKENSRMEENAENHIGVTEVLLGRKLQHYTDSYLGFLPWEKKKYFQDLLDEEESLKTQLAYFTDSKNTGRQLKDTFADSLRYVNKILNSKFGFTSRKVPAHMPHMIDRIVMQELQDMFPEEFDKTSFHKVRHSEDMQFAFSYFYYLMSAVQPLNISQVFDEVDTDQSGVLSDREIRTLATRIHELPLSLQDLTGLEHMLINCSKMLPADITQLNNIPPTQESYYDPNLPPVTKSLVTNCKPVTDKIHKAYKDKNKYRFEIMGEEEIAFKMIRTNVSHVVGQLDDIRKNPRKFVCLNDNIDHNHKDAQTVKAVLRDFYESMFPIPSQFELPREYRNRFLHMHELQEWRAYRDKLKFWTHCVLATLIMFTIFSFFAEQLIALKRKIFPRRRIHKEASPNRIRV
UniProt Q9BQQ3: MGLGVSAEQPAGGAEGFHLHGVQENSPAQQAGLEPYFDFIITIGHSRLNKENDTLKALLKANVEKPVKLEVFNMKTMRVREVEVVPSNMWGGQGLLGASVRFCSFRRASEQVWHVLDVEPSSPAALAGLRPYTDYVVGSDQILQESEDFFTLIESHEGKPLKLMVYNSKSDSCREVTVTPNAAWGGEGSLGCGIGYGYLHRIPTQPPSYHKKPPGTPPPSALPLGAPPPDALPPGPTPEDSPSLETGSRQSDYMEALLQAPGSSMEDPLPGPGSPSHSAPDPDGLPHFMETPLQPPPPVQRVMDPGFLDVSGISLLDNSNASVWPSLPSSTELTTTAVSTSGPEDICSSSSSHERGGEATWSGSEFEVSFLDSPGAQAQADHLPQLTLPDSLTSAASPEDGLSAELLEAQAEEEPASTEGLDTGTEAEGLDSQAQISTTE

B1: GM130 (protein, UniProt Q08379 1-1002)
chain: MWPQPRLPPRPAMSEETRQSKLAAAKKKLREYQQRNSPGVPTGAKKKKKIKNGSNPETTTSGGCHSPEDTPKDNAATLQPSDDTVLPGGVPSPGASLTSMAASQNHDADNVPNLMDETKTFSSTESLRQLSQQLNGLVCESATCVNGEGPASSANLKDLESRYQQLAVALDSSYVTNKQLNITIEKLKQQNQEITDQLEEEKKECHQKQGALREQLQVHIQTIGILVSEKAELQTALAHTQHAARQKEGESEDLASRLQYSRRRVGELERALSAVSTQQKKADRYNKELTKERDALRLELYKNTQSNEDLKQEKSELEEKLRVLVTEKAGMQLNLEELQKKLEMTELLLQQFSSRCEAPDANQQLQQAMEERAQLEAHLGQVMESVRQLQMERDKYAENLKGESAMWRQRMQQMSEQVHTLREEKECSMSRVQELETSLAELRNQMAEPPPPEPPAGPSEVEQQLQAEAEHLRKELEGLAGQLQAQVQDNEGLSRLNREQEERLLELERAAELWGEQAEARRQILETMQNDRTTISRALSQNRELKEQLAELQSGFVKLTNENMEITSALQSEQHVKRELGKKLGELQEKLSELKETVELKSQEAQSLQQQRDQYLGHLQQYVAAYQQLTSEKEVLHNQLLLQTQLVDQLQQQEAQGKAVAEMARQELQETQERLEAATQQNQQLRAQLSLMAHPGEGDGLDREEEEDEEEEEEEAVAVPQPMPSIPEDLESREAMVAFFNSAVASAEEEQARLRGQLKEQRVRCRRLAHLLASAQKEPEAAAPAPGTGGDSVCGETHRALQGAMEKLQSRFMELMQEKADLKERVEELEHRCIQLSGETDTIGEYIALYQSQRAVLKERHREKEEYISRLAQDKEEMKVKLLELQELVLRLVGDRNEWHGRFLAAAQNPADEPTSGAPAPQELGAANQQGDLCEVSLAGSVEPAQGEAREGSPRDNPTAQQIMQLLREMQNPRERPGLGSNPCIPFFYRADENDEVKITVI
B2: GOLGIN-45 (protein, UniProt Q9H2G9 1-400)
chain: MTTKNLETKVTVTSSPIRGAGDGMETEEPPKSVEVTSGVQSRKHHSLQSPWKKAVPSESPGVLQLGKMLTEKAMEVKAVRILVPKAAITHDIPNKNTKVKSLGHHKGEFLGQSEGVIEPNKELSEVKNVLEKLKNSERRLLQDKEGLSNQLRVQTEVNRELKKLLVASVGDDLQYHFERLAREKNQLILENEALGRNTAQLSEQLERMSIQCDVWRSKFLASRVMADELTNSRAALQRQNRDAHGAIQDLLSEREQFRQEMIATQKLLEELLVSLQWGREQTYSPSVQPHSTAELALTNHKLAKAVNSHLLGNVGINNQKKIPSTVEFCSTPAEKMAETVLRILDPVTCKESSPDNPFFESSPTTLLATKKNIGRFHPYTRYENITFNCCNHCRGELIAL

What follows are molecules tested against Myc-tagged GNPTAB (GlcNAc-1-phosphotransferase alpha/beta precursor) (human) (UniProt Q3T906) (assay: co-IP).

binding, no binding:
GRASP65 (from UniProt Q9BQQ3 1-440)
B1
B2
